# Results as given in PubChem BioAssay AID1259415 (National Center for Advancing Translational Sciences (NCATS), 2018).
# Several values for one entry are separate records, joined by “and”; a condition that tells them apart may be missing. Identical values can stand only once. Screen size: about 410,000 compounds; about 18,000 (4.4%) were called active. Inconclusive results, whose numbers are uncertain, are shown with a selection of clear calls. No stated cut-off is given here; in the data, active means activity change below about -60%; inconclusive means no clear call, values can overlap the other calls; inactive means above about -39%.
# Assay: qHTS Assay for inhibitors of the human cytomegalovirus (HCMV)
# Conditions: HFF cells, HCMV-luciferase reporter, 72 h; at 57.5 µM; hits give low values
# Outline: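 Steps: HFFs plated, 16 h 37C; compounds added; HCMV-luciferase added to MOI 1 PFU/cell; 72 h 37C; OneGlo reagent, 5 min room temperature; luminescence read, normalized to controls.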
# On the % scale 0 is the no-effect control and ±100 the full control effect.
row,Structure (SMILES),"activity change, negative = inhibition"
1,COc1ccc(OCC(=O)NC(Cc2c[nH]c3ccccc23)C(=O)O)cc1 (centres undefined),inactive: 11.8%
2,COc1ccc(-c2nn(-c3ccccc3)cc2C(=O)OCC(=O)c2ccc(C)c([N+](=O)[O-])c2)cc1,inconclusive: -52.4%
3,O=C(NCC1CCCO1)C(c1cccs1)N(C(=O)c1ccc(-c2ccccc2)[nH]1)C1CCCC1 (centres undefined),inconclusive: -49.1%
4,Cc1cccc(NC(=S)N(CCCN2CCCC2)Cc2cccn2Cc2ccc(Cl)cc2)c1,active: -60.2%
5,Cc1cccc(CNC(=O)c2sc(=O)n(Cc3ccccc3C)c2C)c1,inconclusive: -52.4%
6,CCOC(=O)c1cnc2c(OC)cccc2c1N1CC(C)CC(C)C1 (centres undefined),inconclusive: -42.1%
7,O=C(Nc1ccccc1SCC1CSc2nc3ccccc3c(=O)n21)c1ccccc1Cl (centres undefined),inconclusive: -42.1%
8,N#Cc1cccc(NC(=O)c2cc(C3CCCCN3C(=O)CCCc3ccccc3)on2)c1 (centres undefined),inactive: -6.91%
9,CCCc1ccc(OC(C)c2nc(-c3ccc(-n4cccc4)cc3)no2)cc1 (centres undefined),inconclusive: -40%
10,O=C(CCNS(=O)(=O)c1ccc2c(c1)CCN2C(=O)C1CC1)N1CCN(c2cccc(C(F)(F)F)c2)CC1,active: -60%
11,COc1cc(S(=O)(=O)NC2CCCCC2)ccc1Cl,inconclusive: -57.8%
12,CCNC(=S)Nc1ccc(OCC)cc1,inconclusive: -43.6%
13,COc1ccc(-c2sc3ccccc3c2C#CCO)cc1,inconclusive: -44.6%
14,Cc1cc(C)cc(NC(=O)N2CCN(C(=O)c3nsc4ccccc34)CC2)c1,inconclusive: 0%
15,Cc1ccc(C)c(S(=O)(=O)N2CCCCC2CCNC(=O)C(=O)NCc2ccncc2)c1 (centres undefined),inconclusive: -42.5%
16,[O-]C1=N[N+](=C(c2ccccc2)c2ccccc2)C1,inactive: -22.3%
17,Cc1ccc2oc(C(Cl)(Cl)Cl)cc(=O)c2c1,active: -89.3%
18,CN1CCN(Cc2nc3ccccc3c(=O)n2Cc2nc(-c3ccc4ccccc4c3)cs2)CC1,active: -99.4% and active: -76.3%
19,CC1CCN(CC(=O)Nc2ccccc2C#N)CC1,inconclusive: -44.3%
20,COc1ccccc1NS(=O)(=O)c1cc(NC(=O)c2ccco2)ccc1N1CCOCC1,inactive: 37.5%
21,Cc1cc2oc(=O)cc(CN3CCOCC3)c2cc1O,inactive: -17.7%
22,C[N+]1=CC2=c3c1c(O)c1c(c3=NCC2)C2(C=C(Br)C(=O)C(Br)=C2)CCN1,active: -102%
23,C/C(=N\NC(=O)COc1ccccc1-c1ccccc1)c1ccccn1,active: -97.5%
24,CC(=C/c1ccccc1)/C=N/NC(=O)c1ccc2nc[nH]c2c1,inconclusive: -41.4%
